This is an account of results in publication doi:10.1101/825018.

These are yes or no findings as the source states them, for the method shown. In cells and extracts the contact can be indirect. Sequences can lack the tags named with a protein.

Test [1] addresses T1, ZP1^WT (wild-type zona pellucida glycoprotein 1), P60852.
T1 chain: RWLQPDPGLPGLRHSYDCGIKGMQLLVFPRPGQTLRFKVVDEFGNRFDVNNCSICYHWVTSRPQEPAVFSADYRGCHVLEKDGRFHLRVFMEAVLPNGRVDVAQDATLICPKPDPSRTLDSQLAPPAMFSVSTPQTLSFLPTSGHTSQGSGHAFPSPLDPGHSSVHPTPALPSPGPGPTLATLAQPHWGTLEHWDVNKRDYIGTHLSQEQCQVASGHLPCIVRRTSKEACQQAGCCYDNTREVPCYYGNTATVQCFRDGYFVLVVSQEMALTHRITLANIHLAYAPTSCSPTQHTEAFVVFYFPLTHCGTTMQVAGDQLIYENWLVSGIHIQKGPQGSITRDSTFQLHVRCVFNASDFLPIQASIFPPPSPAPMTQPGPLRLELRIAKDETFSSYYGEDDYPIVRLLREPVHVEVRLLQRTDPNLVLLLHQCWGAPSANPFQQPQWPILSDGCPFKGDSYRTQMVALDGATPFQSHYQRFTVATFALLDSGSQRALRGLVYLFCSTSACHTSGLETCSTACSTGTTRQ
The experiment in a line: co-IP. To be noted: remark: other sources report otherwise.

Test [2] addresses ZP1^WT (wild-type zona pellucida glycoprotein 1) (UniProt P60852). The experiment in a line: co-IP.

B1: ZP3 (zona pellucida glycoprotein 3), P21754 23-350 (protein)
chain: QPLWLLQGGASHPETSVQPVLVECQEATLMVMVSKDLFGTGKLIRAADLTLGPEACEPLVSMDTEDVVRFEVGLHECGNSMQVTDDALVYSTFLLHDPRPVGNLSIVRTNRAEIPIECRYPRQGNVSSQAILPTWLPFRTTVFSEEKLTFSLRLMEENWNAEKRSPTFHLGDAAHLQAEIHTGSHVPLRLFVDHCVATPTPDQNASPYHTIVDFHGCLVDGLTDASSAFKVPRPGPDTLQFTVDVFHFANDSRNMIYITCHLKVTLAEQDPDELNKACSFSKPSNSWFPVEGSADICQCCNKGDCGTPSHSRRQPHVMSQWSRSASRN
Consider B1, for which the binding result in test [1] is recorded as “no binding”.

B2: ZP4 (zona pellucida glycoprotein 4) (protein, UniProt Q12836 19-462)
chain: GQHKPEAPDYSSVLHCGPWSFQFAVNLNQEATSPPVLIAWDNQGLLHELQNDSDCGTWIRKGPGSSVVLEATYSSCYVTEWDSHYIMPVGVEGAGAAEHKVVTERKLLKCPMDLLARDAPDTDWCDSIPARDRLPCAPSPISRGDCEGLGCCYSSEEVNSCYYGNTVTLHCTREGHFSIAVSRNVTSPPLLLDSVRLALRNDSACNPVMATQAFVLFQFPFTSCGTTRQITGDRAVYENELVATRDVKNGSRGSVTRDSIFRLHVSCSYSVSSNSLPINVQVFTLPPPFPETQPGPLTLELQIAKDKNYGSYYGVGDYPVVKLLRDPIYVEVSILHRTDPYLGLLLQQCWATPSTDPLSQPQWPILVKGCPYIGDNYQTQLIPVQKALDLPFPSHHQRFSIFTFSFVNPTVEKQALRGPVHLHCSVSVCQPAETPSCVVTCPDL
As for B2, the binding entry in test [2] is on record as “no binding”.
